Measurements: publication PMC8698454 (Antibiotics, 2021)

Legend:
[1] = general procedure: Fmoc solid-phase peptide synthesis; 2-chlorotrityl chloride resin; HBTU/HOBt/DIPEA; PyBOP/DIPEA for cyclization; settings: whole synthesis, scale 0.18 mmol
[2] = general procedure: Fmoc solid-phase peptide synthesis; Rink Amide HL 100-200 mesh (0.98 mmol/g) for linear peptides; 2-chlorotrityl chloride resin (1.63 mmol/g) for cyclic pep; HBTU/HOBt/DIPEA; PyBOP/DIPEA for cyclization; settings: whole synthesis

## c(RWWRFK(N3))
[1]
  isolated mass: 22 mg
  isolated yield: 12.3%

## RWWRFK(N3)
[2]; scale 0.18 mmol
  isolated mass: 18.0 mg
  isolated yield: 9.9%

## N3-PEG400-RWWRF
[2]; scale 0.21 mmol
  isolated mass: 31.5 mg
  isolated yield: 18.3%

## N3-PEG200-RWWRF
[2]; scale 0.21 mmol
  isolated mass: 44.4 mg
  isolated yield: 17.2%
